Test results from patent US11884647B2, “Compounds and methods for targeting pathogenic blood vessels” (THE REGENTS OF THE UNIVERSITY OF CALIFORNIA, priority 2019, dated 2024).
At least one read-out could not be matched to a standard name with certainty.

system: tumor endothelial cells (LL/2 lung cancer tumor); experiment: Lung LL2 ex vivo model of tumor angiogenesis; format: cell-based, mouse; conditions: Conc. 10 μm
Method: This example describes a procedure to prepare a primary tumor angiogenesis model for assessing the efficacy of anti-cancer candidate agents.
1. The day before the experiment, spray all necessary tools with 70% ethanol and sterilize them under UV light overnight, including blade, dissecting and micro-dissecting scissors and […]. Place 24-well dishes at 4° C. to pre-chill plates and thaw Matrigel 24 hours before tumor dissection.
2. Spray 70% ethanol on working bench. Prepare two sterile petri dishes with 10 mL sterile PBS. Steps 3 and 4 are for mouse tumor models. For fresh human tumor, directly go to step 5.
3. Euthanize the tumor-bearing mice. Spray 70% ethanol on the mouse and remove the tumor using sterilized dissecting tools (avoid the fur). Rinse the tumor in petri dish with sterile PBS to remove ethanol and fur. Transfer the tumor to a new petri dish with PBS for dissection. Place the dish on ice.
4. Using pre-chilled sterile pipet tips to seed regular Matrigel in 24 well plates on ice. Matrigel (30 μL) is dropped in the middle of each well without touching the edge of the well (avoid introducing bubbles if possible).
5. Cut the tumor in halves using the sterile blade. Identify and isolate healthy tumor tissue that is not necrotic and is within the tumor capsule. Cut the healthy tumor tissue into small pieces. For instance, a suitable size for the tumor tissue is 0.5 mm (H)×0.5 mm (L)×0.3 mm (D) with a total volume of 0.075 mm^3.
6. Gently transfer and embed each tumor piece in the Matrigel drop in the 24-well plate. Place the embedded piece in the bottom and middle of each Matrigel drop. Keep the plate on ice all the time.
7. After seeding the tumor pieces, plates are incubated in a 37° C. cell culture incubator without medium for 10 minutes in order for the Matrigel to solidify.
8. Endothelial Growth Medium (0.5 mL) is added to each well and incubated at 37° C. with 5% CO2. Wait until the new endothelial cells have grown out of the tumor or are larger than 3 mm in diameter until treatment. This usually takes 4 days for the LL2 Lewis lung cancer model and 7 days for the CT26 colon cancer model. For human tumor models, the growth time is typically 2-3 weeks, depending on the tumor type. Media is changed every 4 days during prolonged culture. Typically, when the tumor tissue grows to 2 mm in diameter, it is good for drug testing. A size of about 3 mm in diameter can make visualization easier.
9. When the assay is ready to be analyzed for cell death (e.g., 48 hours after drug addition), prepare the dye mixture by mixing 6 μL of green dye to stain live cells (5 mg/mL Fluorescein diacetate or FDA in DMSO) with 30 μL of red dye (2.5 mg/mL Propidium iodide or PI in PBS) to stain dead cells in an Eppendorf tube. The FDA dye needs to be stored frozen in a −20° C. freezer because it has a labile ester bond.
10. Add 1 μL of the dye mixture to each well of the 24-well dish. It is usually performed one 24-well dish at a time given the amount of time needed to take pictures (the green dye is not as stable in the cells in the long term).
11. Gently rock the dish a few times to mix the dye with the media in the wells and incubate the dish at 37° C. for 10 min (too long incubation can make the green signal too intense).
12. Wash each well with 0.5 mL of sterile PBS and then add 0.5 mL of phenol red free SFM to each well. Alternatively 0.5 mL of regular Endothelial Cell Growth Media can be added to each well if this well needs to be continuously maintained after the experiment.
13. Look through all wells on an inverted microscope using the 2× objective lens to observe morphological changes.
14. Taking pictures in the red and green channels would allow not only the recording of the result but also more accurate quantitation of the result. To take pictures for all the wells, first pick a well that has robust red and green signals. […]

Row | SMILES | 48 hrs (morphology observations after 48 hours)
1 | CCCCCCCCCCOc1ccc(S(=O)(=O)c2cnc3ccc([S+](C)[O-])cc3c2N2CCC(N3CCC(N4CCCC(O)C4)CC3)CC2)cc1 (stereo not shown) [compound 288, 1″-(3-((4-(decyloxy)phenyl)sulfonyl)-6-(methylsulfinyl)quinolin-4-yl)-[1,4′:1′,4″- terpiperidin]-3-ol] | *** (100% of endothelial cells vesicularize in cell shape)

same assay, conditions: Conc. 20 μm

Row | SMILES | 48 hrs (morphology observations after 48 hours)
2 | CCCCCCCCCCOc1ccc(S(=O)(=O)c2cnc3ccc([S+](C)[O-])cc3c2N2CCC(N3CCN(CCO)CC3)CC2)cc1 (stereo not shown) [compound 268, 2-(4-(1-(3-((4-(decyloxy)phenyl)sulfonyl)-6-(methylsulfinyl)quinolin-4-yl)piperidin-4-yl)piperazin-1-yl)ethan-1-ol] | *** (100% of endothelial cells vesicularize in cell shape)
3 | CCCCCCCOc1ccc(S(=O)(=O)c2cnc3ccc([S+](C)[O-])cc3c2N2CCN(CCN3CCCC3)CC2)cc1 (stereo not shown) [compound 276, 3-((4-(heptyloxy)phenyl)sulfonyl)-6-(methylsulfinyl)-4-(4-(2-(pyrrolidin-1-yl)ethyl)piperazin-1-yl)quinoline] | *** (100% of endothelial cells vesicularize in cell shape)
4 | CCCCCCCCCCCCCCOc1ccc(S(=O)(=O)c2cnc3ccc([S+](C)[O-])cc3c2N2CCC(N3CCC(N4CCN(C)CC4)CC3)CC2)cc1 (stereo not shown) [compound 346, 4-(4-(4-methylpiperazin-1-yl)-[1,4′-bipiperidin]-1′-yl)-6-(methylsulfinyl)-3-((4-(tetradecyloxy)phenyl)sulfonyl)quinoline] | * (50% or less of cells vesicularize in cell shape)
5 | CCCCCCCCCCCCOc1ccc(S(=O)(=O)c2cnc3ccc([S+](C)[O-])cc3c2N2CCC(N3CCC(N4CCC(O)CC4)CC3)CC2)cc1 (stereo not shown) [compound 374, 1″-(3-((4-(dodecyloxy)phenyl)sulfonyl)-6-(methylsulfinyl)quinolin-4-yl)-[1,4′:1′,4″-terpiperidin]-4-ol] | ** (more than 50% but less than 100% of endothelial cells vesicularize in cell shape)
6 | CCCCCCCCCCCCOc1ccc(S(=O)(=O)c2cnc3ccc([S+](C)[O-])cc3c2N2CCC(N3CCC(N4CCN(CCO)CC4)CC3)CC2)cc1F (stereo not shown) [compound 368, 2-(4-(1′-(3-((4-(dodecyloxy)-3-fluorophenyl)sulfonyl)-6-(methylsulfinyl)quinolin-4-yl)-[1,4′-bipiperidin]-4-yl)piperazin-1-yl)ethanol] | ** (more than 50% but less than 100% of endothelial cells vesicularize in cell shape)
7 | CCCCCCCOc1ccc(S(=O)(=O)c2cnc3ccc([S+](C)[O-])cc3c2N2CCN(CC3CCN(Cc4ccccc4)CC3)CC2)cc1 (stereo not shown) [compound 279, 4-(4-((1-benzylpiperidin-4-yl)methyl)piperazin-1-yl)-3-((4-(heptyloxy)phenyl)sulfonyl)-6-(methylsulfinyl)quinoline] | **** (100% of endothelial cells vesicularize in cell shape and look flattened in morphology (indicating disintegration of the cell body))
8 | CCCCCCCOc1ccc(S(=O)(=O)c2cnc3ccc(SC)cc3c2N2CCCN(CCN3CCCCC3)CC2)cc1 [compound 248, 3-((4-(heptyloxy)phenyl)sulfonyl)-6-(methylthio)-4-(4-(2-(piperidin-1-yl)ethyl)-1,4-diazepan-1-yl)quinoline] | * (50% or less of cells vesicularize in cell shape)
9 | CCCCCCCCCCCCOc1ccc(S(=O)(=O)c2cnc3ccc([S+](C)[O-])cc3c2N2CCC(N3CCC(N4CCC(O)CC4)CC3)CC2)cc1F (stereo not shown) [compound 372, 1″-(3-((4-(dodecyloxy)-3-fluorophenyl)sulfonyl)-6-(methylsulfinyl)quinolin-4-yl)-[1,4′:1′,4″- terpiperidin]-4-ol] | ** (more than 50% but less than 100% of endothelial cells vesicularize in cell shape)
10 | CCOC(=O)c1ccc2ncc(S(=O)(=O)c3ccc(CC)cc3)c(-n3ccnc3)c2c1 [compound 134, ethyl 3-((4-ethylphenyl)sulfonyl)-4-(1H-imidazol-1-yl)quinoline-6-carboxylate] | **** (100% of endothelial cells vesicularize in cell shape and look flattened in morphology (indicating disintegration of the cell body))
11 | CCCCCCCOc1ccc(S(=O)(=O)c2cnc3ccc(SC)cc3c2N2CCN(CCN3CCCC3)CC2)cc1 [compound 272, 3-((4-(heptyloxy)phenyl)sulfonyl)-6-(methylthio)-4-(4-(2-(pyrrolidin-1-yl)ethyl)piperazin-1-yl)quinoline] | * (50% or less of cells vesicularize in cell shape)
12 | CCc1ccc(S(=O)(=O)c2cnc3ccc(OC(F)(F)F)cc3c2-n2cnnn2)cc1 [compound 125, 3-((4-ethylphenyl)sulfonyl)-4-(1H-tetrazol-1-yl)-6-(trifluoromethoxy)quinoline] | * (50% or less of cells vesicularize in cell shape)
13 | CCCCCCCOc1ccc(S(=O)(=O)c2cnc3ccc(SC)cc3c2N2CCN(C3CCN(C)CC3)CC2)cc1 [compound 273, 3-((4-(heptyloxy)phenyl)sulfonyl)-4-(4-(1-methylpiperidin-4-yl)piperazin-1-yl)-6-(methylthio)quinoline] | *** (100% of endothelial cells vesicularize in cell shape)

same assay, conditions: Conc. 40 μm

Row | SMILES | 48 hrs (morphology observations after 48 hours)
14 | COc1ccc(S(=O)(=O)c2cnc3cc(OC)c(OC)cc3c2N2CCCN(C3CCS(=O)(=O)CC3)CC2)cc1 [compound 330, 4-(4-(6,7-dimethoxy-3-((4-methoxyphenyl)sulfonyl)quinolin-4-yl)-1,4-diazepan-1-yl)tetrahydro-2H-thiopyran 1,1-dioxide] | *** (100% of endothelial cells vesicularize in cell shape)
15 | CCCCOc1ccc(S(=O)(=O)c2cnc3ccc(C(=O)OCC)cc3c2N2CCC(N3CCN(C)CC3)CC2)cc1 [compound 172, ethyl 3-((4-butoxyphenyl)sulfonyl)-4-(4-(4-methylpiperazin-1-yl)piperidin-1-yl)quinoline-6-carboxylate] | **** (100% of endothelial cells vesicularize in cell shape and look flattened in morphology (indicating disintegration of the cell body))
16 | COc1ccc(S(=O)(=O)c2cnc3cc(OC)c(OC)cc3c2N2CCCN(C3CCSCC3)CC2)cc1 [compound 329, 6,7-dimethoxy-3-((4-methoxyphenyl)sulfonyl)-4-(4-(tetrahydro-2H-thiopyran-4-yl)-1,4-diazepan-1-yl)quinoline] | *** (100% of endothelial cells vesicularize in cell shape)
17 | CCCCOc1ccc(S(=O)(=O)c2cnc3ccc(SC)cc3c2N2CCC3C(COCCN3CC(C)C)C2)cc1 (stereo not shown) [compound 352, 7-(3-((4-butoxyphenyl)sulfonyl)-6-(methylthio)quinolin-4-yl)-1-isobutyldecahydropyrido[4,3-e][1,4]oxazepine] | *** (100% of endothelial cells vesicularize in cell shape)
18 | CCCCOc1ccc(S(=O)(=O)c2cnc3ccc(C(=O)OCC)cc3c2N2CCC(N3CCC(CO)CC3)CC2)cc1 [compound 178, ethyl 3-((4-butoxyphenyl)sulfonyl)-4-(4-(hydroxymethyl)-[1,4′-bipiperidin]-1′-yl)quinoline-6-carboxylate] | **** (100% of endothelial cells vesicularize in cell shape and look flattened in morphology (indicating disintegration of the cell body))
19 | CCCCOc1ccc(S(=O)(=O)c2cnc3ccc(C(=O)OCC)cc3c2N2CCC(N3CCCCCC3)CC2)cc1 [compound 176, ethyl 4-(4-(azepan-1-yl)piperidin-1-yl)-3-((4-butoxyphenyl)sulfonyl)quinoline-6-carboxylate] | *** (100% of endothelial cells vesicularize in cell shape)
